According to PMC6481712 (2018):

Test: general procedure: Fmoc solid-phase peptide synthesis; Wang resin (0.1 mmol/g loading); HBTU/HOBt/DIPEA (DMAP for first residue)
Conditions: whole synthesis, scale of the general procedure 0.2 mmol

With IKVAV hybrid β-peptide the outcome was “the syntheses of these molecules failed as the N-terminal β-tripeptide portion could not be attached”.
